These are yes or no findings as the source states them, for the method shown. In cells and extracts the contact can be indirect. Some binding calls cover weakened binding; strength is not graded here.
Target: ubiquitin C-terminal hydrolase L1 (UCHL1) (human (endogenous in A549 and H1299)) (UniProt P09936)
Experiment: co-IP; endogenous proteins in A549 and H1299 lysates; IP with control IgG, anti-UCHL1 and anti-Twist1 antibodies, Protein A/G agarose; lysis in 50 mM Tris-HCl pH 8.0, 150 mM NaCl, 1% NP-40; 4 °C

Amino acid sequences for entries named in this document (tags omitted).
UniProt P09936: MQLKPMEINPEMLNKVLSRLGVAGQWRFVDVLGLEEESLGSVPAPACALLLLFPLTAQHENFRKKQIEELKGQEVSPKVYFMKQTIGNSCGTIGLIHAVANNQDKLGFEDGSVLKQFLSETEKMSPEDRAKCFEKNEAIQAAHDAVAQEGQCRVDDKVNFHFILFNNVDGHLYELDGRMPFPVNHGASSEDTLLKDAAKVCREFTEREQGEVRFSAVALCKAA
UniProt Q15672: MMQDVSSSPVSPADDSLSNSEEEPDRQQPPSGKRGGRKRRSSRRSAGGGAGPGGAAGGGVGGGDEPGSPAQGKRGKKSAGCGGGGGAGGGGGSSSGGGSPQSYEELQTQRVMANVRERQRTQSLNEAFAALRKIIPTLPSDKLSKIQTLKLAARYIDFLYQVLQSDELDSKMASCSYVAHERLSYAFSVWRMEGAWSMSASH

binding: binds
Substance: Twist1 (from UniProt Q15672 1-202)

— publication PMC12847959
